# Screen size: about 220,000 compounds; about 770 (0.35%) were called active. Inconclusive means that the source gave no clear call. Such entries were picked first, then a sample of the others. Cut-off read from the data, not from the text of the source: active = binding response below about 49% or above about 150%; inconclusive = no clear call, values can overlap the other calls; inactive = in between.
# By UniProt entry, the sequences of proteins in these tests, tags left out.
# UniProt P09471, whole entry, looked up: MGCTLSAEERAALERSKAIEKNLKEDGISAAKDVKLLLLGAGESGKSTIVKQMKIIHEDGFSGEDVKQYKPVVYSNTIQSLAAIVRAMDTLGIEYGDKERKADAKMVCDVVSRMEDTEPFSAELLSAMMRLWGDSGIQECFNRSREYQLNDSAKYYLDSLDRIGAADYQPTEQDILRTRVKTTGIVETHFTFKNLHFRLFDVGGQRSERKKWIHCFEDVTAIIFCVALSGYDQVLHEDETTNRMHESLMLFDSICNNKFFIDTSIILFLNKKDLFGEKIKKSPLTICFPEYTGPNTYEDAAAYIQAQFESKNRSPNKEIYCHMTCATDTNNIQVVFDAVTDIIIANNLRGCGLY
# Target: Guanine nucleotide-binding protein G(o) subunit alpha (Homo sapiens) (UniProt P09471)
# Experiment: RGS7-Galphao binding modulators, primary screen, biochemical, multiplexed bead flow cytometry (AID 1439);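 note: fluorescent Galphao held in activated GDP-AlF4 state binding bead-coupled RGS7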
# Settings: at 10 µM, actives lie on both sides
row,Compound,binding response (% of control)
1,O=C1C=C(c2ccccc2)CC(/C=C/c2ccccc2)C1 (stereo unspecified),inactive: 88.2%
2,CC(=O)Nc1ccc(SC[C@H](Cc2ccccc2)N2CCN(CCc3ccccc3)CCC2=O)cc1,inconclusive: 111%
3,O=C(COC(=O)/C=C/c1cccs1)Nc1ccccc1Cl,inactive: 99.6%
4,C/C=C(\C)C(=O)Nc1cccc(C2=NOC3(C2)C[C@H](C(N)=O)N(C(=O)C(c2ccccc2)c2ccccc2)C3)c1 (stereo partly specified),inconclusive: 109%
5,CCn1c(COc2cc(C)ccc2C(C)C)nnc1SCC(=O)Nc1nccs1,inconclusive: 96.9%
6,CCN1CCN(C(=O)CCc2nnc(CCCCc3ccccc3)o2)[C@@H](C)C1=O,inactive: 97%
7,CN(C)/C=N/NC(=O)c1ccccc1,inconclusive: 98%
8,O=C(CSc1nc(-c2ccc(F)cc2)cc(C(F)(F)F)n1)Nc1ccc2c(c1)OCO2,inactive: 103%
9,O=C(Nc1ccccc1C(=O)Nc1ccccn1)c1ccc([N+](=O)[O-])cc1,inconclusive: 83.4%
10,CC(=O)NCC(O)c1ccc([N+](=O)[O-])cc1 (stereo unspecified),inconclusive: 138%
11,CCN1CCN(Cc2ccc(NC(=O)c3cc(NC(=O)c4nccnc4N)cc(OC)c3)cc2C(F)(F)F)CC1,inconclusive: 107%
12,CCOc1ncccc1C(=O)OCC(=O)Nc1ccc(C)c(S(=O)(=O)N(C)C)c1,inconclusive: 96.5%
13,C=CCn1c(SCC(=O)NC(=O)NCc2ccco2)nc2sc(CC)cc2c1=O,inactive: 90.2%
14,COc1ccc(C(=O)Nc2cc3c(oc2=O)CCCC3=O)cc1,inconclusive: 82.8%
15,O=C(CN1CCCC1)Nc1cc(F)ccc1F,inconclusive: 109%
16,Cn1[nH]c(C(F)(F)F)cc1=O,inconclusive: 74.5%
17,CC(C)c1csc(CN2CCN(Cc3ccc(F)c(F)c3)C(CCO)C2)n1 (stereo unspecified),inactive: 102%
18,CCn1c(Cc2ccccc2)nnc1SCC(=O)Nc1ccccc1O,inconclusive: 122%
19,COc1ccc(/C=C/c2ccccc2)cc1[C@H]1[C@H]2C=CC[C@@H](C)[C@@H]2C(=O)N1Cc1ccccc1,inconclusive: 94.3%

row,Compound,binding response (% of control)
1,COc1ccc(OCCNC(=O)Nc2cc(F)c(F)cc2Cl)cc1,inconclusive: 127%
2,CC1CN(C(=O)COC(=O)c2ccc(Cl)nc2)CC(C)O1 (stereo unspecified),inconclusive: 102%
3,CCN1C/C(=N\S(=O)(=O)/N=C2\CN(CC)C(=O)N2CC)N(CC)C1=O,inconclusive: 269%
4,NNc1nc2sc3c(c2c(=O)[nH]1)CCc1ccccc1-3,inactive: 97.8%
5,COc1ccc(CNC(=O)C/C(C)=N/NC(=O)COc2ccc(C)cc2Br)cc1,inactive: 88.1%
6,O=C(NCc1nc2ccccc2[nH]1)C1=C[C@H](c2ccccc2)C[C@H](OCCCCO)O1,inconclusive: 73.3%
7,COc1ccc(CC(=O)N/N=C(\C)CC(=O)NCc2ccco2)cc1OC,inconclusive: 82%
8,CN(C)c1ccc(-c2cccc(C3CC=CC4C3C(=O)N(Cc3ccccc3)C4c3ccc4ccccc4c3)c2)cc1 (stereo unspecified),inconclusive: 93.5%
9,COc1ccc2c(c1)C(=O)CC(O)(C(F)F)O2 (stereo unspecified),inconclusive: 64.1%
10,CCN(CC)CCNc1nc(-c2cccs2)c(CC(=O)O)s1,inconclusive: 107%
11,CCC(C)NC(=O)C1c2cc(OC)c(OC)cc2C(=O)N(C)C1c1cccs1 (stereo unspecified),inactive: 116%
12,Cc1cc(C)n2nc(C(=O)Nc3ccc(S(=O)(=O)N4CCCC4)cc3)nc2n1,inconclusive: 93.2%
13,COc1ccc(OCCSc2nnc(C(C)NC(=O)c3ccccc3F)n2C)cc1 (stereo unspecified),inconclusive: 91.5%
14,COC(=O)c1c(NC(=O)CCC(=O)O)sc(Cc2ccccc2)c1C,inconclusive: 81.2%
15,Cc1ccc(S(=O)(=O)N(C)CC(=O)N/N=C/c2ccc(C)o2)cc1,inconclusive: 149%
16,COc1ccc2oc(C(=O)OC/C(O)=C(\C#N)c3nc4ccccc4[nH]3)c(C)c2c1,inconclusive: 79.8%
17,Cc1cccc(CN(C)CCc2ccccn2)c1,inactive: 105%
18,CCSc1nc2ccccc2c(=O)n1-c1c(C)n(C)n(-c2ccccc2)c1=O,inconclusive: 116%
19,CCOCCCNCc1c(Cl)cccc1Cl,inactive: 107%

# Shown as tab-separated lines: entries from further up.
row	Compound	binding response (% of control)
6	O=C(NCc1nc2ccccc2[nH]1)C1=C[C@H](c2ccccc2)C[C@H](OCCCCO)O1	inconclusive: 73.3%
7	COc1ccc(CC(=O)N/N=C(\C)CC(=O)NCc2ccco2)cc1OC	inconclusive: 82%
8	CN(C)c1ccc(-c2cccc(C3CC=CC4C3C(=O)N(Cc3ccccc3)C4c3ccc4ccccc4c3)c2)cc1 (stereo unspecified)	inconclusive: 93.5%

# Carrying on:

row,Compound,binding response (% of control)
1,CCc1ccc(N2C(=O)C3C(C2=O)N2CCCN2C3c2ccccc2)cc1 (stereo unspecified),inconclusive: 43.2%
2,Cc1ccc(S(=O)(=O)NCC(=O)N/N=C/c2ccccc2O)cc1,inactive: 103%
3,CN1CCN(C(=O)CCN2C(=O)S/C(=C/c3ccc(Cl)cc3)C2=O)CC1,inconclusive: 126%
4,O=C(CSc1ncnc2nc[nH]c12)Nc1nnc(SCc2ccc(Cl)c(Cl)c2)s1,inconclusive: 98.1%
5,O=C1OCCC1Sc1nnc(-c2ccc(Cl)cc2Cl)o1 (stereo unspecified),inconclusive: 92.3%
6,COc1ccc(N2CCN(C(=O)CN3CCN(c4nc(-c5ccc(F)cc5)cs4)CC3)CC2)cc1,inactive: 104%
7,COc1ccccc1C(=O)OCC(=O)Nc1cc(S(=O)(=O)N2CCOCC2)ccc1N1CCCC1,inconclusive: 78.9%
8,Cc1nc(SCC(=O)O)c(C#N)c(-c2ccco2)c1C(=O)N(C)C,inconclusive: 11.8%
9,Cc1ccccc1/C=N\NC(=O)c1ccccc1-n1cccc1,inconclusive: 112%
10,Cc1nc2ccccc2nc1N/N=C/c1ccc(O)cc1O,inconclusive: 125%
11,COc1cc(C(=O)Nc2ccc3c(c2)N(C(=O)CN2CCN(C)CC2)c2ccccc2CC3)cc(OC)c1OC,inconclusive: 86.2%
12,CC(NC(=S)NNS(=O)(=O)c1ccc(C(C)(C)C)cc1)c1ccccc1 (stereo unspecified),inconclusive: 114%
13,O=C(O)/C=C/C(=O)NNC(=O)c1cccc(Br)c1,inactive: 89.8%
14,CCCS(=O)(=O)C/C(N)=N/OC(=O)c1ccc(Cl)cc1,inconclusive: 618%
15,Cc1nn(C)c(Oc2cccc(Cl)c2)c1C#N,inconclusive: 87.9%
16,CC1(C)C2CC=C(/C=N/NC(=S)Nc3cccnc3)C1C2 (stereo unspecified),inconclusive: 246%
17,COc1ccc(Oc2cccc(Cl)c2CNC(=O)CSCC(=O)O)cc1,inconclusive: -88.5%
18,Cc1cccn2c(=O)c3cc(C(=O)NC4CCCCC4)c(=N)n(CCN4CCOCC4)c3nc12,inconclusive: 101%
